Reference: patent publication US9637491B2, “Pyrazolo[4,3-D]pyrimidines as kinase inhibitors” (Origenis GmbH, priority 2012, dated 2017)
Some entries share one result that the patent states for a list of compounds.

Protein sequences, listed by entry. Tags and fused reporters are not part of them. Lines headed by an entry give the natural chain unless they say otherwise; changes in a name come on top.
UniProt Q5S007: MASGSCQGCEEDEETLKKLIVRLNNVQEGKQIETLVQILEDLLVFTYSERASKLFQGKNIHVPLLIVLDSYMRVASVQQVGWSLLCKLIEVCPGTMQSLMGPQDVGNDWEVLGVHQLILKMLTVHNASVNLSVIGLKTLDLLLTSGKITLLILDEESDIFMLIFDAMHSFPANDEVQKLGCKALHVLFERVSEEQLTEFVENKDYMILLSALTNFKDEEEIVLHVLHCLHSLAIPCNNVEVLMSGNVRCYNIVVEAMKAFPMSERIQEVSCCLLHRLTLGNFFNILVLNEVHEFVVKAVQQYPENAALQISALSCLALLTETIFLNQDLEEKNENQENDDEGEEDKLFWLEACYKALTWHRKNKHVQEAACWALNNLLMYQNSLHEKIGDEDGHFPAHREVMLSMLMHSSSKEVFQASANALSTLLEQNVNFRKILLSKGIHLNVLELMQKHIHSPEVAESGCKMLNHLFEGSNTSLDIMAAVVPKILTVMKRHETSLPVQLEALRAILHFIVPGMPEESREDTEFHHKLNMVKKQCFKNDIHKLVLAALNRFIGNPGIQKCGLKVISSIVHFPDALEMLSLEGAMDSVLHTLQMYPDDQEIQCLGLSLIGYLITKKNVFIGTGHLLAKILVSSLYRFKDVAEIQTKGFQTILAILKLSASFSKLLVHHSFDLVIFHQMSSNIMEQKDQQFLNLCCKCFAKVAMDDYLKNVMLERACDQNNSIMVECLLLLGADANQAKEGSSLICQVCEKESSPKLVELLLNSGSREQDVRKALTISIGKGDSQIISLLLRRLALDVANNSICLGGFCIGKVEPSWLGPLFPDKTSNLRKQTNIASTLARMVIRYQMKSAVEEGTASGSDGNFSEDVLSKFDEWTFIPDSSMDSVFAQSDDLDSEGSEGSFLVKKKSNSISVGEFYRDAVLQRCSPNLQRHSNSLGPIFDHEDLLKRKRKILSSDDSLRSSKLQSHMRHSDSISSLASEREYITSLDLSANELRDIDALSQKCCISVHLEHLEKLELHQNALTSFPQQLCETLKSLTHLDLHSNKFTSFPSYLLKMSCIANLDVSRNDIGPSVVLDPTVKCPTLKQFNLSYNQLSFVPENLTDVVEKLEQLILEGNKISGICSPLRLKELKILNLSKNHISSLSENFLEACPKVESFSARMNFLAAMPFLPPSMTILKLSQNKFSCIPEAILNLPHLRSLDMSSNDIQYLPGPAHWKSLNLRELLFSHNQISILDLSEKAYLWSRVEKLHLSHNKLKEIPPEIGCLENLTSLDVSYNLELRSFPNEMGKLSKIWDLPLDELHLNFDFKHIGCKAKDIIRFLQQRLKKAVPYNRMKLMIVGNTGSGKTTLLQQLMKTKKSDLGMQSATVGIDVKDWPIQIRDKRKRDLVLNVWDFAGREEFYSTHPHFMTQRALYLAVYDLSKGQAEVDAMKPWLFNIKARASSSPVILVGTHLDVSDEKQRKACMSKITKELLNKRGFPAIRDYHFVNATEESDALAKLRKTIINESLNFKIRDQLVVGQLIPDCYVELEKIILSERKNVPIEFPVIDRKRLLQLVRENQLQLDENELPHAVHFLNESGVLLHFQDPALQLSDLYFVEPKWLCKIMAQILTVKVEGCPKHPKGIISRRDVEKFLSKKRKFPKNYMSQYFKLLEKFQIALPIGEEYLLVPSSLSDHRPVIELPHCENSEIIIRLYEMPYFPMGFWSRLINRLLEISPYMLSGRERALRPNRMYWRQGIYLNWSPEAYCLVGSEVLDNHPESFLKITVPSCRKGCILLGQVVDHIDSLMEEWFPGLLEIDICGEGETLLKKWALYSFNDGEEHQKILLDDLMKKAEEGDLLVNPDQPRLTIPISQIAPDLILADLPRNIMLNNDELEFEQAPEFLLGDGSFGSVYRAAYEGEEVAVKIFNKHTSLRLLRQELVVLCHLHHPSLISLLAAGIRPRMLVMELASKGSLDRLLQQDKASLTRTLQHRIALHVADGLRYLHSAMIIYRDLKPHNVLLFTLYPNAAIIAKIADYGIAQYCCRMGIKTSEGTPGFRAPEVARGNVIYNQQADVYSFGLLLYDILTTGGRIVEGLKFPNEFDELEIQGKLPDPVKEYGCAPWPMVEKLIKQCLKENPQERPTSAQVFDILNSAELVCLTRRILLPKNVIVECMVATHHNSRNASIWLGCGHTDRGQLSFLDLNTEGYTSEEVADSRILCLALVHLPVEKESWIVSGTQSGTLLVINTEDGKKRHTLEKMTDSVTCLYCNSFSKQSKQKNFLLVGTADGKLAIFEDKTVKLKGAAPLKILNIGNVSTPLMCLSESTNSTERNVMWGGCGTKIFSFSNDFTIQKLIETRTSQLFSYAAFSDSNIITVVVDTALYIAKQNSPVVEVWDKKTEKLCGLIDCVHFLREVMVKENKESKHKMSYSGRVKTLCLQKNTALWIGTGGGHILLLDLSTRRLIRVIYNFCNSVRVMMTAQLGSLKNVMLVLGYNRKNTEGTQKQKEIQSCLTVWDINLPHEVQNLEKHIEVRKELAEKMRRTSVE

Target: T1, LRRK2 (Homo sapiens, UniProt Q5S007)
T1 construct: fused on or other part: GST tag, inferred from the Eu-anti-GST antibody used for detection
Experiment: LRRK2 - LRRK2 G2019S assay (LanthaScreen Eu Kinase Binding Assay)
Conditions: LRRK2 Activities; 5 nM kinase, 10 nM tracer 236, 1 h at RT

IC50, < 10 nM:
COc1ccc(Nc2nc(-c3ccccc3NS(C)(=O)=O)nc3cn[nH]c23)cc1OC [Example 2, N-(2-(7-((3,4-dimethoxyphenyl)amino)-1H-pyrazolo[4,3-d]pyrimidin-5-yl)phenyl)methanesulfonamide]
CC(=O)N1CCN(c2ccc(Nc3nc(-c4ccc5cn[nH]c5c4)nc4cn[nH]c34)cc2)CC1 [Example 50, 1-(4-(4-((5-(1H-indazol-6-yl)-1H-pyrazolo[4,3-d]pyrimidin-7-yl)amino)phenyl)piperazin-1-yl)ethan-1-one]
c1cc(-c2nc(Nc3cnn(C4CCOCC4)c3)c3[nH]ncc3n2)co1 [Example 110, 5-(furan-3-yl)-N-(1-(tetrahydro-2H-pyran-4-yl)-1H-pyrazol-4-yl)-1H-pyrazolo[4,3-d]pyrimidin-7-amine]
c1nn(C2CCOCC2)cc1Nc1nc(C2CC2)nc2cn[nH]c12 [Example 118, 5-cyclopropyl-N-(1-(tetrahydro-2H-pyran-4-yl)-1H-pyrazol-4-yl)-1H-pyrazolo[4,3-d]pyrimidin-7-amine]
COCCn1cc(Nc2nc(-c3ccc4cn[nH]c4c3)nc3cn[nH]c23)cn1 [Example 131, 5-(1H-indazol-6-yl)-N-(1-(2-methoxyethyl)-1H-pyrazol-4-yl)-1H-pyrazolo[4,3-d]pyrimidin-7-amine]
CC(=O)N1CCC(n2cc(Nc3nc(-c4ccc5cn[nH]c5c4)nc4cn[nH]c34)cn2)CC1 [Example 133, 1-(4-(4-((5-(1H-indazol-6-yl)-1H-pyrazolo[4,3-d]pyrimidin-7-yl)amino)-1H-pyrazol-1-yl)piperidin-1-yl)ethan-1-one]
c1nn(C2CCOCC2)cc1Nc1nc(-c2ccc3cn[nH]c3c2)nc2cn[nH]c12 [Example 134, 5-(1H-indazol-6-yl)-N-(1-(tetrahydro-2H-pyran-4-yl)-1H-pyrazol-4-yl)-1H-pyrazolo[4,3-d]pyrimidin-7-amine]
c1cc(-c2nc(Nc3cnn(C4CCOCC4)c3)c3[nH]ncc3n2)co1 [Example 146, 5-(furan-3-yl)-N-(1-(tetrahydro-2H-pyran-4-yl)-1H-pyrazol-4-yl)-1H-pyrazolo[4,3-d]pyrimidin-7-amine]
COCCn1cc(Nc2nc(C3CCC3)nc3cn[nH]c23)cn1 [Example 191, 5-cyclobutyl-N-(1-(2-methoxyethyl)-1H-pyrazol-4-yl)-1H-pyrazolo[4,3-d]pyrimidin-7-amine]
CC(=O)N1CCC(n2cc(Nc3nc(-c4ccco4)nc4cn[nH]c34)cn2)CC1 [Example 196, 1-(4-(4-((5-(furan-2-yl)-1H-pyrazolo[4,3-d]pyrimidin-7-yl)amino)-1H-pyrazol-1-yl)piperidin-1-yl)ethan-1-one]
CN1CCC(n2cc(Nc3nc(-c4ccco4)nc4cn[nH]c34)cn2)CC1 [Example 198, 5-(furan-2-yl)-N-(1-(1-methylpiperidin-4-yl)-1H-pyrazol-4-yl)-1H-pyrazolo[4,3-d]pyrimidin-7-amine]
CC(=O)N1CCC(n2cc(Nc3nc(-c4ccoc4)nc4cn[nH]c34)cn2)CC1 [Example 200, 1-(4-(4-((5-(furan-3-yl)-1H-pyrazolo[4,3-d]pyrimidin-7-yl)amino)-1H-pyrazol-1-yl)piperidin-1-yl)ethan-1-one]
CN1CCC(n2cc(Nc3nc(-c4ccoc4)nc4cn[nH]c34)cn2)CC1 [Example 202, 5-(furan-3-yl)-N-(1-(1-methylpiperidin-4-yl)-1H-pyrazol-4-yl)-1H-pyrazolo[4,3-d]pyrimidin-7-amine]
CC(=O)N1CCC(n2cc(Nc3nc(C4CC4)nc4cn[nH]c34)cn2)CC1 [Example 204, 1-(4-(4-((5-cyclopropyl-1H-pyrazolo[4,3-d]pyrimidin-7-yl)amino)-1H-pyrazol-1-yl)piperidin-1-yl)ethan-1-one]
CN1CCC(n2cc(Nc3nc(C4CCC4)nc4cn[nH]c34)cn2)CC1 [Example 206, 5-cyclobutyl-N-(1-(1-methylpiperidin-4-yl)-1H-pyrazol-4-yl)-1H-pyrazolo[4,3-d]pyrimidin-7-amine]
CC(C)(C)n1cc(Nc2nc(-c3ccco3)nc3cn[nH]c23)cn1 [Example 212, N-(1-(tert-butyl)-1H-pyrazol-4-yl)-5-(furan-2-yl)-1H-pyrazolo[4,3-d]pyrimidin-7-amine]
CC(C)n1cc(Nc2nc(-c3ccco3)nc3cn[nH]c23)cn1 [Example 214, 5-(furan-2-yl)-N-(1-isopropyl-1H-pyrazol-4-yl)-1H-pyrazolo[4,3-d]pyrimidin-7-amine]
CC(C)(C)n1cc(Nc2nc(-c3ccoc3)nc3cn[nH]c23)cn1 [Example 218, N-(1-(tert-butyl)-1H-pyrazol-4-yl)-5-(furan-3-yl)-1H-pyrazolo[4,3-d]pyrimidin-7-amine]
N#CC1(n2cc(Nc3nc(-c4ccoc4)nc4cn[nH]c34)cn2)CCCCC1 [Example 219, 1-(4-((5-(furan-3-yl)-1H-pyrazolo[4,3-d]pyrimidin-7-yl)amino)-1H-pyrazol-1-yl)cyclohexanecarbonitrile]
CC(C)n1cc(Nc2nc(-c3ccoc3)nc3cn[nH]c23)cn1 [Example 220, 5-(furan-3-yl)-N-(1-isopropyl-1H-pyrazol-4-yl)-1H-pyrazolo[4,3-d]pyrimidin-7-amine]
COCCCn1cc(Nc2nc(-c3ccoc3)nc3cn[nH]c23)cn1 [Example 221, 5-(furan-3-yl)-N-(1-(3-methoxypropyl)-1H-pyrazol-4-yl)-1H-pyrazolo[4,3-d]pyrimidin-7-amine]
CC(C)(C)n1cc(Nc2nc(C3CCC3)nc3cn[nH]c23)cn1 [Example 222, N-(1-(tert-butyl)-1H-pyrazol-4-yl)-5-cyclobutyl-1H-pyrazolo[4,3-d]pyrimidin-7-amine]
CC(C)n1cc(Nc2nc(C3CCC3)nc3cn[nH]c23)cn1 [Example 223, 5-cyclobutyl-N-(1-isopropyl-1H-pyrazol-4-yl)-1H-pyrazolo[4,3-d]pyrimidin-7-amine]
COCCCn1cc(Nc2nc(C3CCC3)nc3cn[nH]c23)cn1 [Example 224, 5-cyclobutyl-N-(1-(3-methoxypropyl)-1H-pyrazol-4-yl)-1H-pyrazolo[4,3-d]pyrimidin-7-amine]
COc1cc(C(=O)N2CCOCC2)ccc1Nc1nc(C2CCC2)nc2cn[nH]c12 [Example 227, (4-((5-cyclobutyl-1H-pyrazolo[4,3-d]pyrimidin-7-yl)amino)-3-methoxyphenyl)(morpholino)methanone]
CC(C)(C)n1cc(Nc2nc(C3CC3)nc3cn[nH]c23)cn1 [Example 228, N-(1-(tert-butyl)-1H-pyrazol-4-yl)-5-cyclopropyl-1H-pyrazolo[4,3-d]pyrimidin-7-amine]
CC(C)n1cc(Nc2nc(C3CC3)nc3cn[nH]c23)cn1 [Example 229, 5-cyclopropyl-N-(1-isopropyl-1H-pyrazol-4-yl)-1H-pyrazolo[4,3-d]pyrimidin-7-amine]
COc1cc(C(=O)N2CCOCC2)ccc1Nc1nc(C2CC2)nc2cn[nH]c12 [Example 232, (4-((5-cyclopropyl-1H-pyrazolo[4,3-d]pyrimidin-7-yl)amino)-3-methoxyphenyl)(morpholino)methanone]
OCCn1cc(Nc2nc(-c3ccco3)nc3cn[nH]c23)cn1 [Example 239, 2-(4-((5-(furan-2-yl)-1H-pyrazolo[4,3-d]pyrimidin-7-yl)amino)-1H-pyrazol-1-yl)ethan-1-ol]
N#CCn1cc(Nc2nc(-c3ccoc3)nc3cn[nH]c23)cn1 [Example 241, 2-(4-((5-(furan-3-yl)-1H-pyrazolo[4,3-d]pyrimidin-7-yl)amino)-1H-pyrazol-1-yl)acetonitrile]
OCCn1cc(Nc2nc(-c3ccoc3)nc3cn[nH]c23)cn1 [Example 242, 2-(4-((5-(furan-3-yl)-1H-pyrazolo[4,3-d]pyrimidin-7-yl)amino)-1H-pyrazol-1-yl)ethan-1-ol]
c1nn(C2CC2)cc1Nc1nc(C2CCC2)nc2cn[nH]c12 [Example 267, 5-cyclobutyl-N-(1-cyclopropyl-1H-pyrazol-4-yl)-1H-pyrazolo[4,3-d]pyrimidin-7-amine]
c1coc(-c2nc(Nc3cnn(C4CC4)c3)c3[nH]ncc3n2)c1 [Example 278, N-(1-cyclopropyl-1H-pyrazol-4-yl)-5-(furan-2-yl)-1H-pyrazolo[4,3-d]pyrimidin-7-amine]
c1nn(C2CC2)cc1Nc1nc(C2CC2)nc2cn[nH]c12 [Example 282, 5-cyclopropyl-N-(1-cyclopropyl-1H-pyrazol-4-yl)-1H-pyrazolo[4,3-d]pyrimidin-7-amine]
Cc1c(Nc2nc(C3CC3)nc3cn[nH]c23)cnn1C(C)C [Example 287, 5-cyclopropyl-N-(1-isopropyl-5-methyl-1H-pyrazol-4-yl)-1H-pyrazolo[4,3-d]pyrimidin-7-amine]
CC(C)(C)N1CCC(n2cc(Nc3nc(-c4ccoc4)nc4cn[nH]c34)cn2)CC1 [Example 291, N-(1-(1-(tert-butyl)piperidin-4-yl)-1H-pyrazol-4-yl)-5-(furan-3-yl)-1H-pyrazolo[4,3-d]pyrimidin-7-amine]
Cc1nn(C(C)C)cc1Nc1nc(-c2ccoc2)nc2cn[nH]c12 [Example 292, 5-(furan-3-yl)-N-(1-isopropyl-3-methyl-1H-pyrazol-4-yl)-1H-pyrazolo[4,3-d]pyrimidin-7-amine]
Cc1nn(C2CCOCC2)cc1Nc1nc(-c2ccoc2)nc2cn[nH]c12 [Example 294, 5-(furan-3-yl)-N-(3-methyl-1-(tetrahydro-2H-pyran-4-yl)-1H-pyrazol-4-yl)-1H-pyrazolo[4,3-d]pyrimidin-7-amine]
Cc1c(Nc2nc(-c3ccoc3)nc3cn[nH]c23)cnn1C1CCOCC1 [Example 295, 5-(furan-3-yl)-N-(5-methyl-1-(tetrahydro-2H-pyran-4-yl)-1H-pyrazol-4-yl)-1H-pyrazolo[4,3-d]pyrimidin-7-amine]
